# Publication PMC6576150
# These are yes or no findings as the source states them, for the method shown. In cells and extracts the contact can be indirect. Some entries that bind do so weakly or less than the wild type. For some of these results: Sequences can lack the tags named with a protein.
# T1: Mta1-Avi-3xFLAG (mouse (endogenous in ES cells)), Q8K4B0
# T1 chain: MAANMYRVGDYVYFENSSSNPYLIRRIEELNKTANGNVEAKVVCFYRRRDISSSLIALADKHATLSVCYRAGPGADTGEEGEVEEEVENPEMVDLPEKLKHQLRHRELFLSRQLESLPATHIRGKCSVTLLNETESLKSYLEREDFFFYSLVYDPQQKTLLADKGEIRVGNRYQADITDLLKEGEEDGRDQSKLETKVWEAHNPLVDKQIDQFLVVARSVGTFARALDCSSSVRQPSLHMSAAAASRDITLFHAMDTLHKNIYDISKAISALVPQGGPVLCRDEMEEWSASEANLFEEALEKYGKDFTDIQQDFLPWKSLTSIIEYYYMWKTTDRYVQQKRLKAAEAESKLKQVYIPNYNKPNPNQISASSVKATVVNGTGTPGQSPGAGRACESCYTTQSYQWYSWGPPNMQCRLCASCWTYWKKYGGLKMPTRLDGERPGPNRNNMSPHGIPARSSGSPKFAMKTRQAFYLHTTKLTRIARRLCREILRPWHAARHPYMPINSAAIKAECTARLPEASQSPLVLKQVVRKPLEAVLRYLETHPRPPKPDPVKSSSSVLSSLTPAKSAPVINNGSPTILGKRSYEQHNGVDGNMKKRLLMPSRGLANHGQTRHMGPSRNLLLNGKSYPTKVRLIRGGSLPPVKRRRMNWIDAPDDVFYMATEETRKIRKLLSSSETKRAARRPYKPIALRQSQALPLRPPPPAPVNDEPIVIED
# T2: Mta2-GFP (mouse (endogenous in ES cells)), Q9R190
# T2 chain: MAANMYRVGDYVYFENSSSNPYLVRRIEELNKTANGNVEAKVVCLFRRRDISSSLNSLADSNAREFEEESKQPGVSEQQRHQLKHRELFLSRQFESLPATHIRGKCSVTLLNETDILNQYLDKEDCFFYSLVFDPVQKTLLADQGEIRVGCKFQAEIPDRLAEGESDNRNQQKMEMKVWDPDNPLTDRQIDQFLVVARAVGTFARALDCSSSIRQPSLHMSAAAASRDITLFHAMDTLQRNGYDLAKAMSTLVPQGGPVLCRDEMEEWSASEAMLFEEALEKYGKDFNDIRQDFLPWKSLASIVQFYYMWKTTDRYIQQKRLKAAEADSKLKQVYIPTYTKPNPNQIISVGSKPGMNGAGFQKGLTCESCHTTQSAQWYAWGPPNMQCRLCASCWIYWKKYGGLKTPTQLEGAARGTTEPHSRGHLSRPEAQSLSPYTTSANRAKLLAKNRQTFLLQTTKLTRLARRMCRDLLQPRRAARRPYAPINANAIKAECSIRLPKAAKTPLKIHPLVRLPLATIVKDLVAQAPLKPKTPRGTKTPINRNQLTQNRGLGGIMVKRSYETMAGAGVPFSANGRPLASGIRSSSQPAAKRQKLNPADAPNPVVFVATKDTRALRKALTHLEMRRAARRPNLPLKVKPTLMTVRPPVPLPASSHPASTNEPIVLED
# B1: Mta1, Q8K4B0 1-715 (protein)
# chain: MAANMYRVGDYVYFENSSSNPYLIRRIEELNKTANGNVEAKVVCFYRRRDISSSLIALADKHATLSVCYRAGPGADTGEEGEVEEEVENPEMVDLPEKLKHQLRHRELFLSRQLESLPATHIRGKCSVTLLNETESLKSYLEREDFFFYSLVYDPQQKTLLADKGEIRVGNRYQADITDLLKEGEEDGRDQSKLETKVWEAHNPLVDKQIDQFLVVARSVGTFARALDCSSSVRQPSLHMSAAAASRDITLFHAMDTLHKNIYDISKAISALVPQGGPVLCRDEMEEWSASEANLFEEALEKYGKDFTDIQQDFLPWKSLTSIIEYYYMWKTTDRYVQQKRLKAAEAESKLKQVYIPNYNKPNPNQISASSVKATVVNGTGTPGQSPGAGRACESCYTTQSYQWYSWGPPNMQCRLCASCWTYWKKYGGLKMPTRLDGERPGPNRNNMSPHGIPARSSGSPKFAMKTRQAFYLHTTKLTRIARRLCREILRPWHAARHPYMPINSAAIKAECTARLPEASQSPLVLKQVVRKPLEAVLRYLETHPRPPKPDPVKSSSSVLSSLTPAKSAPVINNGSPTILGKRSYEQHNGVDGNMKKRLLMPSRGLANHGQTRHMGPSRNLLLNGKSYPTKVRLIRGGSLPPVKRRRMNWIDAPDDVFYMATEETRKIRKLLSSSETKRAARRPYKPIALRQSQALPLRPPPPAPVNDEPIVIED
# B2: Mta2, Q9R190 1-668 (protein)
# chain: MAANMYRVGDYVYFENSSSNPYLVRRIEELNKTANGNVEAKVVCLFRRRDISSSLNSLADSNAREFEEESKQPGVSEQQRHQLKHRELFLSRQFESLPATHIRGKCSVTLLNETDILNQYLDKEDCFFYSLVFDPVQKTLLADQGEIRVGCKFQAEIPDRLAEGESDNRNQQKMEMKVWDPDNPLTDRQIDQFLVVARAVGTFARALDCSSSIRQPSLHMSAAAASRDITLFHAMDTLQRNGYDLAKAMSTLVPQGGPVLCRDEMEEWSASEAMLFEEALEKYGKDFNDIRQDFLPWKSLASIVQFYYMWKTTDRYIQQKRLKAAEADSKLKQVYIPTYTKPNPNQIISVGSKPGMNGAGFQKGLTCESCHTTQSAQWYAWGPPNMQCRLCASCWIYWKKYGGLKTPTQLEGAARGTTEPHSRGHLSRPEAQSLSPYTTSANRAKLLAKNRQTFLLQTTKLTRLARRMCRDLLQPRRAARRPYAPINANAIKAECSIRLPKAAKTPLKIHPLVRLPLATIVKDLVAQAPLKPKTPRGTKTPINRNQLTQNRGLGGIMVKRSYETMAGAGVPFSANGRPLASGIRSSSQPAAKRQKLNPADAPNPVVFVATKDTRALRKALTHLEMRRAARRPNLPLKVKPTLMTVRPPVPLPASSHPASTNEPIVLED
# Experiments:
# [1] = biological target: Mta2-GFP (mouse (endogenous in ES cells)) (UniProt Q9R190); test: co-IP; GFP-Trap agarose beads; 200 μg nuclear extract of heterozygously targeted mouse ES cells in GFP IP buffer (10 mM Tris pH 7.5, 150 mM NaCl, 0.5 mM EDTA) with benzonase, 1 h at 4°C; western blot
# [2] = biological target: Mta1-Avi-3xFLAG (mouse (endogenous in ES cells)) (UniProt Q8K4B0); test: co-IP; anti-FLAG antibody on Protein G Sepharose; 200 μg nuclear extract of heterozygously targeted mouse ES cells in IP Buffer (50 mM Tris-HCl pH 7.5, 150 mM NaCl, 1 mM EDTA, 1% Triton X-100, 0.1% SDS, 0.1% DOC) with benzonase, 4°C overnight; last washes with 300 mM NaCl; western blot
# [3] = biological target: T1, Mta1-Avi-3xFLAG (mouse (endogenous in …)); test: as above; settings: remark: other sources report otherwise
# [4] = biological target: T2, Mta2-GFP (mouse (endogenous in ES …)); test: co-IP; GFP-Trap agarose beads; 200 μg nuclear extract of heterozygously targeted mouse ES cells in GFP IP buffer (10 mM Tris pH 7.5, 150 mM NaCl, 0.5 mM EDTA) with benzonase, 1 h at 4°C; western blot; settings: remark: other sources report otherwise
molecule,measurement,setting,value
Mta1 (from UniProt Q8K4B0 1-715),binding,[1],binds
Mta2 (from UniProt Q9R190 1-668),binding,[2],binds
B1,binding,[3],binds
B2,binding,[4],binds
